# In the supplement of paper PMC4749390:
# Counter-ions that a name gives are not always drawn. The list shows a part of the results. Repeats in this data set agree poorly, so a single value says little.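 JEG3 cells stably carry tetracycline-induced wild-type human LRH-1, a heavily sumoylated nuclear receptor. APOC3 and MUC1 are SUMO-sensitive transcripts, raised by SUMO-less LRH-1 or UBC9 knockdown, measured by RT-qPCR against TBP and DMSO controls. A robust Z-score above +2 or below -2 marked a primary hit before toxicity and TBP filtering.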
# Tested on: JEG3 expressing hLRH-1
# Assay: MUC1 transcript change (ddCt vs TBP and DMSO), Z-score over library; higher = higher MUC1 expression
# Details: 10 µM; time (hr): 24
row,Structure (SMILES),MUC1 transcript change (Z-score)
1,CCOC(=O)[N-]c1c[n+](N2CCOCC2)no1 [molsidomine],-0.622
2,c1ccc2[nH]c(-c3cscn3)nc2c1 [thiabendazole],0.325
3,CC(CCC(=O)O)[C@H]1CCC2C3C(=O)C[C@@H]4CC(=O)CC[C@]4(C)C3CC(=O)[C@@]21C (some centres not stated) [dehydrocholic acid],0.865
4,CCCCC1(COC(=O)CCC(=O)O)C(=O)N(c2ccccc2)N(c2ccccc2)C1=O [suxibuzone],-0.528
5,CN(C)c1nc(N(C)C)nc(N(C)C)n1 [altretamine],-1.05
6,C[C@]12C=CC(=O)C=C1CCC1C2[C@@H](O)C[C@@]2(C)C1CC[C@]2(O)C(=O)COP(=O)(O)O (some centres not stated) [prednisolone sodium phosphate],0.706
7,O=C(O)CCC(=O)Nc1ccc(S(=O)(=O)Nc2nccs2)cc1 [succinylsulfathiazole],-0.149
8,O=C1c2ccccc2C(=O)C1c1ccc(Cl)cc1 [chlorindione],0.571
9,NNC(=O)c1ccncc1 [isoniazid],1.2
10,Nc1cc(C(Cl)=C(Cl)Cl)c(S(N)(=O)=O)cc1S(N)(=O)=O [clorsulon],0.487
11,COc1cccc(OC)c1C(=O)N[C@@H]1C(=O)N2[C@@H]1SC(C)(C)[C@@H]2C(=O)O [methicillin sodium],0.476
12,N[C@@H](COP(=O)(O)O)C(=O)O [O-Phospho-L-serine],-0.434
13,CN(C)CCc1c[nH]c2ccc(CS(=O)(=O)N3CCCC3)cc12 [almotriptan],-1.1
14,[O-][n+]1cccc(CO)c1 [mepiroxol],-0.249
15,NC(=O)c1ccc[n+]([C@@H]2O[C@H](COP(=O)([O-])OP(=O)(O)OC[C@H]3O[C@@H](n4cnc5c(N)ncnc54)[C@H](O)[C@@H]3O)[C@@H](O)[C@H]2O)c1 [nadide],0.000285
16,N[C@@H](Cc1ccc(O)c(O)c1)C(=O)O [levodopa],-0.314
17,CO[C@H]1C[C@H](O[C@@H]2/C(C)=C/C[C@@H]3C[C@@H](C[C@]4(CC[C@H](C)[C@@H](C5CCCCC5)O4)O3)OC(=O)[C@@H]3C=C(C)/C(=N/O)[C@H]4OC/C(=C\C=C\[C@@H]2C)[C@]43O)O[C@@H](C)[C@@H]1O [selamectin],0.119
18,Oc1ccnc(O)n1 [uracil],1.08
19,O=C(O)C[C@H](O)C[C@H](O)/C=C/c1c(C2CC2)nc2ccccc2c1-c1ccc(F)cc1 [pitavastatin calcium],-0.209
20,C=C(C)C1CC=C(C)CC1 (stereo not drawn) [d-limonene],0.318
21,CCN(CC)CCNC(=O)c1cc(Br)c(N)cc1OC [bromopride],-0.401
22,O=[N+]([O-])c1ccc(O)c2ncccc12 [nitroxoline],1.22
23,COc1c2ccoc2cc2oc(=O)ccc12 [bergapten],0.284
24,CC1(C)O[C@]2(C)CC[C@H]1CC2 [eucalyptol],-0.0475
25,CN(C)CCN(Cc1ccccc1)c1ccccn1 [Tripelennamine hydrochloride],0.443
26,CN1CCN(c2c(F)cc3c(=O)c(C(=O)O)cn4c3c2SCC4)CC1 [rufloxacin hydrochloride],0.278

row,Structure (SMILES),MUC1 transcript change (Z-score)
1,COCCCOc1ccnc(CS(=O)c2nc3ccccc3[nH]2)c1C (configuration not stated) [rabeprazole sodium],0.819
2,CC(C)NNC(=O)c1ccncc1 [Iproniazid phosphate],0.682
3,OCCc1ccccc1 [phenylethyl alcohol],0.179
4,C[C@H]1c2cccc(O)c2C(=O)C2=C(O)[C@]3(O)C(O)=C(C(N)=O)C(=O)[C@@H](N(C)C)[C@@H]3[C@@H](O)[C@@H]21 [doxycycline hydrochloride],0.00319
5,Cn1nnc2c(C(N)=O)ncn2c1=O [temozolamide],-0.358
6,CN1CCC(OC(c2ccccc2)c2ccccc2)CC1 [diphenylpyraline hydrochloride],-0.783
7,CN(C)CCCN1c2ccccc2Sc2ccc(Cl)cc21 [Chlorpromazine hydrochloride],-0.108
8,Nc1ccc(C(=O)O)c(O)c1 [sodium p-aminosalicylate],0.955
9,CCCCOc1cc(C(=O)OCCN(CC)CC)ccc1N [benoxinate hydrochloride],-0.153
10,O=C(O)c1ccccc1O [sodium salicylate],0.229
11,CS(=O)(=O)Nc1ccc([N+](=O)[O-])cc1Oc1ccccc1 [nimesulide],-1.01
12,C1CCC(C(CC2CCCCN2)C2CCCCC2)CC1 (configuration not stated) [perhexiline maleate],0.321
13,COC(=O)[C@H](c1ccccc1Cl)N1CCc2sccc2C1 [clopidogrel sulfate],0.3
14,CCn1nc(C(=O)O)c(=O)c2cc3c(cc21)OCO3 [cinoxacin],-1.57
15,CCC(=O)O[C@]1(C(=O)SCF)[C@H](C)C[C@H]2[C@@H]3C[C@H](F)C4=CC(=O)C=C[C@]4(C)[C@@]3(F)[C@@H](O)C[C@@]21C [fluticasone propionate],-0.3
16,CCCNC(C)(C)COC(=O)c1ccccc1 [meprylcaine hydrochloride],0.343
17,CC(=O)c1ccc(S(=O)(=O)NC(=O)NC2CCCCC2)cc1 [Acetohexamide],0.608
18,O=C(O)CN1C(=O)c2cccc3cccc(c23)C1=O [alrestatin],-0.0889
19,NC(Cc1ccc(Cl)cc1)C(=O)O (racemic) [(±)-p-Chlorophenylalanine],-0.731
20,Cc1onc(-c2ccccc2Cl)c1C(=O)N[C@@H]1C(=O)N2[C@@H]1SC(C)(C)[C@@H]2C(=O)O [cloxacillin sodium],-0.0437
21,CCC1(C)CC(=O)NC1=O (configuration not stated) [ethosuximide],0.372
22,NC[C@@H]1O[C@H](O[C@H]2[C@@H](O)[C@H](O[C@@H]3[C@@H](O)[C@H](N)C[C@H](N)[C@H]3O[C@H]3O[C@H](CN)[C@@H](O)[C@H](O)[C@H]3N)O[C@@H]2CO)[C@H](N)[C@@H](O)[C@@H]1O [neomycin sulfate],0.161
23,O=C1c2c(O)ccc(O)c2C(=O)c2c(NCCNCCO)ccc(NCCNCCO)c21 [mitoxanthrone hydrochloride],2.46
24,CC(=O)c1ccc2c(c1)N(CCCN(C)C)c1ccccc1S2 [acepromazine maleate],-0.647
25,Oc1c(Cl)cc(Cl)cc1Sc1cc(Cl)cc(Cl)c1O [bithionol],-0.0873
26,NS(=O)(=O)c1cc2c(cc1C(F)(F)F)NCNS2(=O)=O [hydroflumethiazide],0.118

# Molecules shown so far containing nitrogen in an aromatic ring (18):
row,Structure (SMILES),MUC1 transcript change (Z-score)
1,CCOC(=O)[N-]c1c[n+](N2CCOCC2)no1 [molsidomine],-0.622
2,c1ccc2[nH]c(-c3cscn3)nc2c1 [thiabendazole],0.325
5,CN(C)c1nc(N(C)C)nc(N(C)C)n1 [altretamine],-1.05
7,O=C(O)CCC(=O)Nc1ccc(S(=O)(=O)Nc2nccs2)cc1 [succinylsulfathiazole],-0.149
9,NNC(=O)c1ccncc1 [isoniazid],1.2
13,CN(C)CCc1c[nH]c2ccc(CS(=O)(=O)N3CCCC3)cc12 [almotriptan],-1.1
14,[O-][n+]1cccc(CO)c1 [mepiroxol],-0.249
15,NC(=O)c1ccc[n+]([C@@H]2O[C@H](COP(=O)([O-])OP(=O)(O)OC[C@H]3O[C@@H](n4cnc5c(N)ncnc54)[C@H](O)[C@@H]3O)[C@@H](O)[C@H]2O)c1 [nadide],0.000285
18,Oc1ccnc(O)n1 [uracil],1.08
19,O=C(O)C[C@H](O)C[C@H](O)/C=C/c1c(C2CC2)nc2ccccc2c1-c1ccc(F)cc1 [pitavastatin calcium],-0.209
22,O=[N+]([O-])c1ccc(O)c2ncccc12 [nitroxoline],1.22
25,CN(C)CCN(Cc1ccccc1)c1ccccn1 [Tripelennamine hydrochloride],0.443
26,CN1CCN(c2c(F)cc3c(=O)c(C(=O)O)cn4c3c2SCC4)CC1 [rufloxacin hydrochloride],0.278
1,COCCCOc1ccnc(CS(=O)c2nc3ccccc3[nH]2)c1C (configuration not stated) [rabeprazole sodium],0.819
2,CC(C)NNC(=O)c1ccncc1 [Iproniazid phosphate],0.682
5,Cn1nnc2c(C(N)=O)ncn2c1=O [temozolamide],-0.358
14,CCn1nc(C(=O)O)c(=O)c2cc3c(cc21)OCO3 [cinoxacin],-1.57
20,Cc1onc(-c2ccccc2Cl)c1C(=O)N[C@@H]1C(=O)N2[C@@H]1SC(C)(C)[C@@H]2C(=O)O [cloxacillin sodium],-0.0437

# Remaining list, next part.

row,Structure (SMILES),MUC1 transcript change (Z-score)
1,CCn1cc(C(=O)O)c(=O)c2cnc(N3CCCC3)nc21 [piromidic acid],0.275
2,CC(O)(CC(=O)O)CC(=O)O [meglutol],-0.331
3,N=C(N)/N=C(\N)N1CCOCC1 [moroxydine hydrochloride],-0.0833
4,CCN(CC)C(=O)c1ccc(O)c(OC)c1 [ethamivan],0.539
5,CC(=O)[C@@]1(O)CC[C@H]2[C@@H]3CCC4=CC(=O)CC[C@]4(C)[C@H]3CC[C@@]21C [hydroxyprogesterone],-0.622
6,CCOC(=O)[C@H](CCc1ccccc1)N[C@@H](C)C(=O)N1Cc2ccccc2C[C@H]1C(=O)O [quinapril hydrochloride],-0.119
7,CCC(C)n1ncn(-c2ccc(N3CCN(c4ccc(OC[C@H]5CO[C@](Cn6cncn6)(c6ccc(Cl)cc6Cl)O5)cc4)CC3)cc2)c1=O (some centres not stated) [itraconazole],-0.0936
8,CNCCCC12CCC(c3ccccc31)c1ccccc12 [maprotiline hydrochloride],0.497
9,CCC1NC(=O)c2cc(S(N)(=O)=O)c(Cl)cc2N1 (configuration not stated) [quinethazone],-0.811
10,O=C1NCC2(CCN(CCc3ccccc3)CC2)O1 [fenspiride hydrochloride],-0.104
11,O=C(O)Cc1cc(I)c(Oc2ccc(O)c(I)c2)c(I)c1 [tiratricol],-0.313
12,Cc1cc(-c2ccccc2)nnc1NCCN1CCOCC1 [minaprine hydrochloride],1.02
13,CCCOc1ccc2[nH]c(NC(=O)OC)nc2c1 [oxybendazole],-0.988
14,Cc1cc2nc3c(=O)[nH]c(=O)nc-3n(C[C@H](O)[C@H](O)[C@H](O)CO)c2cc1C [riboflavin],0.00461
15,C=CCc1ccccc1OCC(O)CNC(C)C (configuration not stated) [Alprenolol hydrochloride],0.364
16,CO[C@H]1/C=C/O[C@@]2(C)Oc3c(C)c(O)c4c(O)c(c5c(nc6cc(C)ccn65)c4c3C2=O)NC(=O)/C(C)=C\C=C\[C@H](C)[C@H](O)[C@@H](C)[C@@H](O)[C@@H](C)[C@H](OC(C)=O)[C@@H]1C [rifaximin],-1.16
17,C[C@]12C=CC(=O)N[C@@H]1CC[C@@H]1[C@@H]2CC[C@]2(C)[C@@H](C(=O)Nc3cc(C(F)(F)F)ccc3C(F)(F)F)CC[C@@H]12 [dutasteride],0.258
18,CCCNC(=O)NS(=O)(=O)c1ccc(Cl)cc1 [Chlorpropamide],-1.14
19,Cc1cc(O)c(C(=O)N[C@@H](C(=O)N[C@@H]2C(=O)N3C(C(=O)O)=C(CSc4nnnn4C)CS[C@H]23)c2ccc(O)cc2)cn1 [cefpiramide],-0.53
20,C(=C\N1CCN(C(c2ccccc2)c2ccccc2)CC1)/Cc1ccccc1 [cinnarazine],-0.79
21,NCCCCCC(=O)O [aminocaproic acid],-0.517
22,Cc1ccnc2c1NC(=O)c1cccnc1N2C1CC1 [nevirapine],-0.515
23,CNCCc1ccccn1 [betahistine hydrochloride],-0.985
24,N#C[C@@H]1C[C@@H]2C[C@@H]2N1C(=O)[C@@H](N)[C@]12CC3CC(C[C@@](O)(C3)C1)C2 [saxagliptin],1.34
25,CO/N=C(/C(=O)N[C@@H]1C(=O)N2C(C(=O)OCSC(=O)c3ccco3)=CCS[C@H]12)c1csc(N)n1 [ceftiofur hydrochloride],0.459

# As entered above.
# `CCCNC(=O)NS(=O)(=O)c1ccc(Cl)cc1` [Chlorpropamide] | MUC1 transcript change (Z-score): -1.14
# `Cc1cc(-c2ccccc2)nnc1NCCN1CCOCC1` [minaprine hydrochloride] | MUC1 transcript change (Z-score): 1.02
